# Data taken from PubChem BioAssay.
# This list was built around the results that the source calls inconclusive (neither active nor inactive); the mix of calls is not that of the screen. Where the call is inconclusive, the potency comes from a doubtful curve fit. Activity calls are given as the source filed them. Unless noted, no cut-off is given here; in the data, nearly all actives have AC50 up to about 30 µM.
# How the values were obtained:
# [1] = growth inhibition of DIPG glioma cells, dose response, cell-based, SU-DIPG-XVII, MIPE5.0, CellTiter-Glo, qHTS (AID 1347060; cut-off not given, nearly all actives have AC50 up to about 26 µM;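 note: cells exposed to compound for 48 hours before viability readout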); settings: SU-DIPG-XVII viability, CellTiter-Glo ATP luminescence
# [2] = JHH-DIPG-1 glioma cell viability, MIPE5.0 library, CellTiter-Glo luminescence, qHTS (AID 1347067; cut-off not given, nearly all actives have AC50 up to about 26 µM;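 note: cells exposed to compound for 48 hours before readout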); settings: JHH-DIPG-1 glioma viability, CellTiter-Glo ATP luminescence
# [3] = SU-DIPG-XXV glioma cell viability, MIPE5.0 library, qHTS (AID 1347068; cut-off not given, nearly all actives have IC50 up to about 30 µM;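 note: cells exposed to compound for 48 hours before viability readout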)
# [4] = growth inhibition of DIPG glioma cells, dose response, cell-based, SU-DIPG-XIII, MIPE4.0, CellTiter-Glo, qHTS (AID 1347061; cut-off not given, nearly all actives have AC50 up to about 37 µM;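 note: cells exposed to compound for 48 hours before readout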); settings: SU-DIPG-XIII viability, CellTiter-Glo ATP luminescence
# [5] = growth inhibition of DIPG glioma cells, dose response, cell-based, JHH-DIPG-1, MIPE4.0, CellTiter-Glo, qHTS (AID 1347062; cut-off not given, nearly all actives have AC50 up to about 27 µM;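 for AC50: cells exposed to compound for two days before readout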); settings: JHH-DIPG-1 viability, CellTiter-Glo ATP luminescence
# [6] = growth inhibition of DIPG glioma cells, dose response, cell-based, SU-DIPG-IV, MIPE4.0, CellTiter-Glo, qHTS (AID 1347063); settings: SU-DIPG-IV viability, CellTiter-Glo ATP luminescence;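 note: compound exposure lasted 48 hours before the viability readout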
structure (smiles),measurement,setting,value
Cc1c(C(=O)N2CCOc3ccc(-c4ccc(N)nc4)cc3C2)ccc(S(C)(=O)=O)c1F,AC50,[1],inconclusive: 0.0833 µM [cytotoxic]
same,AC50,[2],inconclusive: 4.17 µM [cytotoxic]
same,IC50,[3],inconclusive: 2.95 µM [cytotoxic]
OC(CN1CCC(Cc2ccc(F)cc2)CC1)c1ccc(Cl)cc1 (stereo unspecified),outcome,[4],inactive
same,AC50,[5],inconclusive: 26.4 µM [cytotoxic]
same,outcome,[6],inactive
C[C@@H](O)[C@H]1C(=O)N2C(C(=O)OCOC(=O)C(C)(C)C)=C(SC3CN(C4=NCCS4)C3)[C@H](C)[C@H]12,outcome,[4],inactive
same,AC50,[5],inconclusive: 0.148 µM [cytotoxic]
same,AC50,[6],inconclusive: 0.743 µM
CN[C@@H]1[C@@H](O)[C@@H](O[C@@H]2[C@@H](O)[C@H](O[C@H]3O[C@H](CN)[C@@H](O)[C@H](O)[C@H]3O)[C@@H](N)C[C@H]2NC(=O)[C@@H](O)CN)OC[C@]1(C)O,AC50,[4],inconclusive: 20.9 µM [cytotoxic]
same,outcome,[5],inactive
same,outcome,[6],inactive
O=C(Nc1cccc2c(=O)cc(-c3nn[nH]n3)oc12)c1ccc(OCCCCc2ccccc2)cc1,AC50,[4],inconclusive: 26.4 µM [cytotoxic]
same,AC50,[5],inconclusive: 37.2 µM [cytotoxic]
same,AC50,[6],inconclusive: 16.6 µM [cytotoxic]
Cc1c(NC(=O)c2cc(C(N)=O)nc3cc(F)ccc23)c(C(F)(F)F)nn1Cc1ccc(C(C)(C)C)cc1,AC50,[1],inconclusive: 29.5 µM [cytotoxic]
same,AC50,[2],active: 23.5 µM
same,IC50,[3],inconclusive: 33.2 µM [cytotoxic]
O=c1[nH]c(=O)n([C@H]2C[C@H](O)[C@@H](CO)O2)cc1/C=C/Br,AC50,[4],inconclusive: 23.5 µM [cytotoxic]
same,outcome,[5],inactive
same,outcome,[6],inactive

# Another view of some results above.
structure (smiles) | measurement | setting | value
CN[C@@H]1[C@@H](O)[C@@H](O[C@@H]2[C@@H](O)[C@H](O[C@H]3O[C@H](CN)[C@@H](O)[C@H](O)[C@H]3O)[C@@H](N)C[C@H]2NC(=O)[C@@H](O)CN)OC[C@]1(C)O | AC50 | [4] | inconclusive: 20.9 µM [cytotoxic]
same | outcome | [5] | inactive
